Drawing on article PMC5557939, this text covers binding for three molecules.

By UniProt entry, the sequences of proteins in these tests, tags left out.
UniProt Q62318: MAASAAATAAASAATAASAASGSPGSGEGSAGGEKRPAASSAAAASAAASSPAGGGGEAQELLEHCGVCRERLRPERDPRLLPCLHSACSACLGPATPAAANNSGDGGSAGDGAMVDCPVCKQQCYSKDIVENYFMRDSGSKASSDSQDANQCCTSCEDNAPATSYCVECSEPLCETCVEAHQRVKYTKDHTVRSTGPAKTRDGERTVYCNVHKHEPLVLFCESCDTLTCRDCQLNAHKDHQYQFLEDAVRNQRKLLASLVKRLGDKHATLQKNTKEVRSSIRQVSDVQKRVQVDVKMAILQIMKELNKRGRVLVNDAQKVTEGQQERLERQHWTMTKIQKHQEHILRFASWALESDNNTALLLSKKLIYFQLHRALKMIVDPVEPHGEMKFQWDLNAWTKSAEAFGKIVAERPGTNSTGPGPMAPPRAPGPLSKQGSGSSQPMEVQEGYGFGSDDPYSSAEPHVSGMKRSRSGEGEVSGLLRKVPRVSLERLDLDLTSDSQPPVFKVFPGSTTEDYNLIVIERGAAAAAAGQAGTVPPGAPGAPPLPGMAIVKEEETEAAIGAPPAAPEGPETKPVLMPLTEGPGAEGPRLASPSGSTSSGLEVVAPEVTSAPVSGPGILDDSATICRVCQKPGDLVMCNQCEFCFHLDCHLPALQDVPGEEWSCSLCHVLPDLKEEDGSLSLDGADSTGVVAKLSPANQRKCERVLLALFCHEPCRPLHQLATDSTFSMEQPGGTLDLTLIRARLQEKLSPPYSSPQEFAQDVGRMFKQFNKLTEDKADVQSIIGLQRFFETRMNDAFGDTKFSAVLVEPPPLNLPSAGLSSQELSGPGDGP
UniProt Q8C0D7: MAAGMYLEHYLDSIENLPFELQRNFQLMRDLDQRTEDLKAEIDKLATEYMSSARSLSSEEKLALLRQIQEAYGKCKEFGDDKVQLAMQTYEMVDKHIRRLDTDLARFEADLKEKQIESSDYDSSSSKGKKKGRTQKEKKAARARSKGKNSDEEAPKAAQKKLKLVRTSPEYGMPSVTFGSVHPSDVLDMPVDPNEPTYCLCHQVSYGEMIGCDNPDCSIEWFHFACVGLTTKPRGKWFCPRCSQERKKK
UniProt Q5SVQ0: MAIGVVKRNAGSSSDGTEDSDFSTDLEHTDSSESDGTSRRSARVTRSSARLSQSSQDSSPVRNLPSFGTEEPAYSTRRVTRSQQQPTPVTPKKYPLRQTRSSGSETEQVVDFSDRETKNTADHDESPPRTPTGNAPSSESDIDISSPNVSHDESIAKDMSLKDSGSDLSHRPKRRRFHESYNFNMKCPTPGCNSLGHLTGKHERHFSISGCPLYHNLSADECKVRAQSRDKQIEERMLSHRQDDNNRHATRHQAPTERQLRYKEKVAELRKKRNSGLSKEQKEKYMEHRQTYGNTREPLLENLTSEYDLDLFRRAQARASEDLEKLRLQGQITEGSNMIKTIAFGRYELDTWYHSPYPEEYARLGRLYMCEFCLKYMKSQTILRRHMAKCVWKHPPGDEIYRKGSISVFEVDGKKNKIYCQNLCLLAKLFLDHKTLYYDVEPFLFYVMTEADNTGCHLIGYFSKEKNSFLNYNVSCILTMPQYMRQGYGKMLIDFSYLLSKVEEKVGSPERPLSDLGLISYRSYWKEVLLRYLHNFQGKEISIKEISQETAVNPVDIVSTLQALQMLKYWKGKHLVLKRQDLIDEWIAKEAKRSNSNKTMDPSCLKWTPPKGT

For experiment [1], the target named is Trim28 (mouse (endogenous in E14 ESCs)) (UniProt Q62318). The experiment in a line: co-IP; antibodies (2-5 ug) coupled to Dynal-Protein G beads, incubated with whole cell extracts of mouse ESCs for 1-2 h at 4 °C; endogenous proteins; western blot; control rabbit IgG. For orientation: A western blot detects proteins with antibodies after separation by electrophoresis.

Experiment [2] deals with T1, GST-tagged wild-type mouse Niam (mouse) (UniProt Q3UB74).
T1 sequence: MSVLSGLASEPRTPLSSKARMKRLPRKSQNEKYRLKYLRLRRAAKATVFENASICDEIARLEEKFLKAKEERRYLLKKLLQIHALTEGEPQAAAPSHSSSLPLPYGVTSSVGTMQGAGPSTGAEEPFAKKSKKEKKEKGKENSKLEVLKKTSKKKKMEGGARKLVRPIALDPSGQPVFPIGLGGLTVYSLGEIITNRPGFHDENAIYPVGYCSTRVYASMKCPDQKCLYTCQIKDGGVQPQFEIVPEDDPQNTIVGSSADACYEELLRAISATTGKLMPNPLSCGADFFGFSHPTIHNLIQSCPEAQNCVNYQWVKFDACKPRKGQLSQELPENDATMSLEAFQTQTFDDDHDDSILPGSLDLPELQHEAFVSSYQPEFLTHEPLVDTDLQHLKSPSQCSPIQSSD
In words: pull-down; purified GST or GST-Niam proteins bound to glutathione sepharose, 0.5 to 1 mg of mouse ESC lysate in NP-40 buffer (50 mM Tris pH 8.0, 120 mM NaCl, 1 mM EDTA, 0.5% NP-40), overnight at 4 °C; immunoblot with anti-Myst2; only the target purified.

The target in experiment [3] is T2, GST-tagged mouse Niam CT (residues 158-406) (mouse) (UniProt Q3UB74).
T2 sequence: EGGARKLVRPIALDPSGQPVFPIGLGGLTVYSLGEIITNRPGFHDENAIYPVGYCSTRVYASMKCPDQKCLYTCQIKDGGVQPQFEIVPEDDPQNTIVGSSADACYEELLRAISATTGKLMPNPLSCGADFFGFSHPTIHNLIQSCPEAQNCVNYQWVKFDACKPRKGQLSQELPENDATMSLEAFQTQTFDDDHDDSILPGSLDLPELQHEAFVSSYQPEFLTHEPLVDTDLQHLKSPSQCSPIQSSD
The description is as above.

Experiment [4] has as its target T3, GST-tagged mouse Niam NT (residues 1-164) (mouse) (UniProt Q3UB74).
T3 sequence: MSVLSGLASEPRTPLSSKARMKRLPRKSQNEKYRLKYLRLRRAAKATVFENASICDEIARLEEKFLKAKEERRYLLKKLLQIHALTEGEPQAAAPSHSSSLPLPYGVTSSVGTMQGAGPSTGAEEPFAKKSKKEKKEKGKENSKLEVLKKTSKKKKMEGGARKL
The description is as above.

Experiment [5] addresses T4, GST-tagged human Niam (human) (UniProt Q3YBR2).
T4 sequence: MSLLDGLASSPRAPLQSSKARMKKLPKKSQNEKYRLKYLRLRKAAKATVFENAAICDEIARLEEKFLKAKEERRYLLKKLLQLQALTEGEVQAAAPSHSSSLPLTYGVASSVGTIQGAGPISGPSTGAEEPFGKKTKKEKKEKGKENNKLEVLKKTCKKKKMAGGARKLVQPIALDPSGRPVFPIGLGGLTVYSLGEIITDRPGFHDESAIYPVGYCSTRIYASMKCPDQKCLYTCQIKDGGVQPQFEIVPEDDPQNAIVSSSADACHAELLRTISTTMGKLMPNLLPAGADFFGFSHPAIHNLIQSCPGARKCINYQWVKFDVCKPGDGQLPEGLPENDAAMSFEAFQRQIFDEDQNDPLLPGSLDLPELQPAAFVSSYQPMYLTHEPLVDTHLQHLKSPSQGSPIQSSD
The description is as above.

These are yes or no findings as the source states them, for the method shown. In cells and extracts the contact can be indirect. Some entries that bind do so weakly or less than the wild type. For part of these data: Tags and fused reporters may be left off the sequences shown.

With Ing4 (from UniProt Q8C0D7 1-249), the binding entry in experiment [1] is “binds”.
For the molecule “Myst2 (endogenous, untagged) (from UniProt Q5SVQ0 1-613) (enzyme)”, the binding result in experiment [2] is reported as “binds”; in experiment [3], “no binding”; in experiment [4] it was “binds”; in experiment [5], “no binding”.

B1: Phf16 (protein, UniProt Q6IE82 1-823)
chain: MKRHRPVSSSESSDECPSTSFTSSSMYRKKSKNPKEQKKSAEVFRKDLISAMKIPDSHHVNPDSYYLFTDTWKEEWEKGVQVPANPDSVPTPSLRIISEKVKEMLFVRPRKYIRCSSPESAEPGYINTLEQAASTCRYDLDDMDIFWLQELNEDLGEMGYGPIDETLMEKTIEVLERHCHENMNHAIETVEGLGIEYDEDVICDVCRSPDSEEGNDMVFCDKCNVCVHQACYGILKIPEGSWLCRSCVLGIYPQCVLCPKKGGAMKTTRTGTKWAHVSCALWIPEVSIACPERMEPVTKISHIPPSRWALVCNLCKLKTGACIQCSVKSCITAFHVTCAFEHGLEMKTILDEGDEVKFKSFCLKHSQNKPKLGDAEYHHHRVAEQSQAKSEKTSLRAQKLRELEEEFYTLVQVEDVAKEMELSAFTVDFIYNYWKLKRKSNFNKPLIPPKEEEENGLVQPKEESIHTRMRMFMHLRQDLERVRNLCYMISRREKLKLSHTKVQEQIFGLQVQLINEEITEGLSLTNALENSLFYPPPRITLKLKMPKSTSEDCKDSSTETEHQLSSPGSSSPGHSKRSPQMPEEPLDMNVKIYPRYPLESKSNCLQTSRSHSRCETKSSSPTPRAPSAEFYHGQSLGKPLALQAALHGQVSIGNGKNQPNSRVSSSNGLEGNWSGNITQKVNSSEVCYDQESMLSSHLPSPGNIRKSSMEHFSRSFKEATNTWVKPTEDLQYCVKPTKNVSSKEQLWGRQLLRRPTGRASYQETDGYCPDLEPSDSEAEGEGSKETPRVKRESSDRENPSHDSARECHGKTKTHPHSHSSMQR
Turning to B1, the binding entry in experiment [1] is “binds”.
